## Screening data, single-dose tests

The chains behind the UniProt entries cited, without tags or fusion partners.
UniProt P9WFT3, whole entry: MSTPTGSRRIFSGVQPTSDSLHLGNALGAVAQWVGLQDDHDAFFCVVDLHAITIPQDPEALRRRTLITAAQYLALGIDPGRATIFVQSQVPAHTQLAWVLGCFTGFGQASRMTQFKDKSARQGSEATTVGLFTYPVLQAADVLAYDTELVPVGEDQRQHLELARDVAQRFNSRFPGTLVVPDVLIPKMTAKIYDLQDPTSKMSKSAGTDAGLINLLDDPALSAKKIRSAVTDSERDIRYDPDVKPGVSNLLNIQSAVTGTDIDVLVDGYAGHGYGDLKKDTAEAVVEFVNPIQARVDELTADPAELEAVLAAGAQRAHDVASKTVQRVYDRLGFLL

The values are deposited in ChEMBL (CHEMBL3988442, “University of Dundee, Small-Polar-MMV Screening Library” (2021)).

Leishmania in macrophages: 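Cell assay of Leishmania donovani living inside macrophages; the read-out is not stated. Compounds at 30 µM. Direction is inferred from retests: higher values go with stronger inhibition. Of about 69,000 compounds tested this way, about 1,000 (1.5%) reached 50% or more in at least one test.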
MtTrpRS: 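Enzyme assay of tryptophanyl-tRNA synthetase; the read-out is not stated. Target: Tryptophan-tRNA ligase, Mycobacterium tuberculosis (UniProt P9WFT3). Concentration: 10 µM. Direction is not recorded; retested compounds ran higher, which suggests that high means inhibition. About 65,000 compounds were tested under these conditions; 0.098% (about 64) showed 50% or more at least once.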
T. brucei: 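Whole-parasite assay of Trypanosoma brucei over 72 hours; the read-out is not stated. Concentration: 30 µM. Direction is inferred from retests: higher values go with stronger inhibition. Values scatter widely below zero; nearly all retest evidence comes from the higher of the two concentrations used. About 64,000 compounds were tested under these conditions; 1.5% (about 940) showed 50% or more at least once.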

The filed quantity is “Percent Effect” (%).
How 0% and 100% were set is not recorded. Most values in the screen are low, and negative values occur.
This is an unselected part of the compounds tested.
Two or more numbers in one place are separate tests of the same structure; such repeats can differ widely.
A dash means the value is not listed here; it may have been measured.

compound	Leishmania in macrophages	MtTrpRS	T. brucei
CSc1ncccc1C(=O)NCCC(O)c1cccs1 (stereo not drawn)	12.01 and 16.72	2.66	9.577
CC(=O)N1CCCCC1c1cc(C(=O)N2CCOCC2)[nH]n1 (stereo not drawn)	21.89	1.589	-3.007
CN(Cc1ccc(N(C)C)cc1)C(=O)CSc1ccc(Br)cc1	14.25	0.9497	12.7
O=C(c1ccc(C2CCCN2C(=O)c2ccc[nH]2)s1)N1CCSCC1 (stereo not drawn)	-5.919	-2.583	-5.767
O=C(O)C(F)(F)F.[H][C@@]12C[C@@H](c3nnc(C)[nH]3)O[C@]1([H])CN(C1CCC1)C2	8.62	-	-74.57
O=C(O)c1ccc(C2CCCN(C(=O)c3ccc[nH]3)C2)cc1 (stereo not drawn)	-19.19	-1.53	-38.95
CCN(CCC(F)(F)F)S(=O)(=O)c1cccc(F)c1C#N	6.455	-6.748	-38.44
COc1ccc(C)c2c1N(C(=O)c1cnc(C)s1)CCC2	5.043	3.233	-9.694
COc1ncccc1NC(=O)N(C1CC1)C(C)C(C)C (stereo not drawn)	18.67	-7.542	-
Cc1cc2n(n1)CC(CNC1CCN(CCc3ccccc3)CC1)CN2 (stereo not drawn)	15.82	-0.2639	-52.23
O=C(O)C(F)(F)F.O=C1COC2(CCN(Cc3cccs3)CC2)CN1c1ccccc1	13.11	-	-4.656
CN(Cc1ccccn1)C(=O)C(c1ccccc1)N1CCSCC1 (stereo not drawn)	6.623	1.086	22.57
Cc1oncc1C(=O)NCC1(O)CCc2ccccc2C1 (stereo not drawn)	25.53	3.118	-27.98
CS(=O)(=O)NCc1cn2c(n1)CN(Cc1ccoc1)CC2	-	-2.013	-
CCc1noc(CN(CCC2CCCCC2)CC(N)=O)n1	4.96	2.34	-11.1
Cc1cc(C(=O)NC(C)C(=O)Nc2cc(F)ccc2C)nc(C)n1 (stereo not drawn)	-12.26	-4.691	-39.42
CCn1nc(C)c(CN(CCOC)C(=O)c2cnc(C)nc2O)c1C	7.505	0.2547	-33.2
COC(=O)CN(Cc1ccccc1C)C(=O)C1CCC1	-5.986	5.932	-58.36
O=C(c1ccnc(-n2cnnc2)c1)N1CCCC2(CCOC2)C1 (stereo not drawn)	20.72	0.9031	-7.304
CSc1ccccc1NC(=O)c1ccc(N2CCOCC2)nn1	-13.4	0.4468	-12.3
CC(O)CN1CCN(C(=O)CCOc2ccccc2F)CC1 (stereo not drawn)	-6.826	1.683	-27.75
CC(=O)NC1CCCN(C(=O)NCCOc2ccc3c(c2)OCO3)C1 (stereo not drawn)	2.537	0.7252	-
COc1ccccc1CN1C(=O)O[C@@H]2CN(c3nc(C)cc(C)n3)C[C@@H]21	-	3.82	-
Cc1ccc(CN2C[C@H](OCCN(C)C)[C@H]3OCCC[C@H]32)o1	-	-3.973	-
O=C(O)C(F)(F)F.O=C(O)C(F)(F)F.[H][C@@]12COC[C@]1(CN(C)C)CN(Cc1cc(C)on1)C2	-27.07	-	-
O=C(NCc1ccc(Cl)cc1)[C@@H]1Cc2[nH]cnc2CN1CC1CC1	4.201	-0.0753	-20.92
Cc1cncc(C2CCCN(C(=O)c3scnc3C)C2)n1 (stereo not drawn)	-7.008	-0.2508	9.625
CO[C@H]1CCN(S(=O)(=O)c2cn(C)cn2)[C@H]1Cc1cccnc1.O=C(O)C(F)(F)F.O=C(O)C(F)(F)F	26.9	-	30.78
CC(=O)c1ccc(N2CCCC(CO)(CCc3ccccc3)C2)nc1 (stereo not drawn)	-2.285	5.145	50.39
Cc1noc(C)c1CN(C)CC1CCCN1c1cccnn1 (stereo not drawn)	22.2	-1.016	-23.55
[H][C@@]12COC[C@]1(COc1nccc(C)n1)CN(C(=O)c1ncccn1)C2	-8.083	-	-87.64
Cc1ccc(NC(=O)N2CCN(C(=O)CC3CCCC3)CC2)s1	4.798	-4.107	22.49
OC1(CN2CCCC2)CCCN(c2ncnc3[nH]cnc23)C1 (stereo not drawn)	-7.635	-6.101	-15.7
Cc1ccc2c(c1)CCC2NCc1c(C)nn(CCO)c1C (stereo not drawn)	-	-1.72	-
CCN1CC(C(=O)NC(C)(C)CC)CC1=O (stereo not drawn)	5.697	-5.013	3.784
COc1cccc2c(C)c(C(=O)N3CCNCC3C(N)=O)[nH]c12 (stereo not drawn)	-	-5.667	-
CC(=O)NCC(=O)N1CCCC2(CCC(=O)N(CCc3c[nH]cn3)C2)C1 (stereo not drawn)	-40.62	3.133	-29.3
CC(C)(C)n1ncc2c1NC(=O)CSC2c1ccc2c(c1)OCCO2 (stereo not drawn)	-41.02	5.372	-13.42
CC(C(=O)Nc1cccc(C(F)(F)F)c1)N(C)CCN1CCOCC1 (stereo not drawn)	41.52	0.9441	-40.36
CC(C)S(=O)(=O)c1nnc(CCNC(=O)OC(C)(C)C)o1	14.06	8.04	-12.55
O=C(Cn1ccnc1)N1C[C@@H]2CC[C@H](Oc3ccccc3)[C@@H]2C1	-	-0.9197	-
CCc1nnc2n1CCN(Cc1csc(-c3ccsc3)n1)C2	17.61	-2.275	9.63
O=C(Nc1ccccc1Oc1cccc(F)c1)C1CCS(=O)(=O)C1 (stereo not drawn)	-16.39	-0.5236	-50.49
Cc1cccc(CNC(=O)C2CCC(=O)N(Cc3ccccc3F)C2)n1 (stereo not drawn)	21.23	3.907	-
CCCc1noc(C2CC(=O)N(C(C)(C)C)C2)n1 (stereo not drawn)	13.52	-0.1236	-2.37
COC(=O)c1cccn1C1CCN(C(=O)c2ccc(C)[nH]c2=O)CC1	1.037	-2.726	-2.379
COc1ccc2c(c1)C(C(=O)N(C)CCCc1cnn(C)c1)CC(=O)N2 (stereo not drawn)	-2.147	-2.599	-6.187
[H][C@@]12CCN(Cc3cccc4ccccc34)C[C@]1(c1nnc(C)o1)CCO2	36.34	-	-5.427
COC(=O)COn1c(SC(C)C)nc2ccccc2c1=O	31.39 and -1.211	-0.6135	-57.37

Some entries from above, unchanged:

compound	Leishmania in macrophages	MtTrpRS	T. brucei
Cc1cncc(C2CCCN(C(=O)c3scnc3C)C2)n1 (stereo not drawn)	-7.008	-0.2508	9.625
CCc1nnc2n1CCN(Cc1csc(-c3ccsc3)n1)C2	17.61	-2.275	9.63
CCCc1noc(C2CC(=O)N(C(C)(C)C)C2)n1 (stereo not drawn)	13.52	-0.1236	-2.37
CC(O)CN1CCN(C(=O)CCOc2ccccc2F)CC1 (stereo not drawn)	-6.826	1.683	-27.75